From patent publication US20250188139A1
Results are given in words; binding and its absence hold for the method and conditions named. Some results given as binding are weak or reduced against the parent protein; the word gives no strength. For some assays here: Where a sequence is shown, tags or fusion partners need not be part of it.

Amino acid sequences for entries named in this document (tags omitted). A change or cut given only in a name is not applied to a line headed by its entry.
UniProt P35918: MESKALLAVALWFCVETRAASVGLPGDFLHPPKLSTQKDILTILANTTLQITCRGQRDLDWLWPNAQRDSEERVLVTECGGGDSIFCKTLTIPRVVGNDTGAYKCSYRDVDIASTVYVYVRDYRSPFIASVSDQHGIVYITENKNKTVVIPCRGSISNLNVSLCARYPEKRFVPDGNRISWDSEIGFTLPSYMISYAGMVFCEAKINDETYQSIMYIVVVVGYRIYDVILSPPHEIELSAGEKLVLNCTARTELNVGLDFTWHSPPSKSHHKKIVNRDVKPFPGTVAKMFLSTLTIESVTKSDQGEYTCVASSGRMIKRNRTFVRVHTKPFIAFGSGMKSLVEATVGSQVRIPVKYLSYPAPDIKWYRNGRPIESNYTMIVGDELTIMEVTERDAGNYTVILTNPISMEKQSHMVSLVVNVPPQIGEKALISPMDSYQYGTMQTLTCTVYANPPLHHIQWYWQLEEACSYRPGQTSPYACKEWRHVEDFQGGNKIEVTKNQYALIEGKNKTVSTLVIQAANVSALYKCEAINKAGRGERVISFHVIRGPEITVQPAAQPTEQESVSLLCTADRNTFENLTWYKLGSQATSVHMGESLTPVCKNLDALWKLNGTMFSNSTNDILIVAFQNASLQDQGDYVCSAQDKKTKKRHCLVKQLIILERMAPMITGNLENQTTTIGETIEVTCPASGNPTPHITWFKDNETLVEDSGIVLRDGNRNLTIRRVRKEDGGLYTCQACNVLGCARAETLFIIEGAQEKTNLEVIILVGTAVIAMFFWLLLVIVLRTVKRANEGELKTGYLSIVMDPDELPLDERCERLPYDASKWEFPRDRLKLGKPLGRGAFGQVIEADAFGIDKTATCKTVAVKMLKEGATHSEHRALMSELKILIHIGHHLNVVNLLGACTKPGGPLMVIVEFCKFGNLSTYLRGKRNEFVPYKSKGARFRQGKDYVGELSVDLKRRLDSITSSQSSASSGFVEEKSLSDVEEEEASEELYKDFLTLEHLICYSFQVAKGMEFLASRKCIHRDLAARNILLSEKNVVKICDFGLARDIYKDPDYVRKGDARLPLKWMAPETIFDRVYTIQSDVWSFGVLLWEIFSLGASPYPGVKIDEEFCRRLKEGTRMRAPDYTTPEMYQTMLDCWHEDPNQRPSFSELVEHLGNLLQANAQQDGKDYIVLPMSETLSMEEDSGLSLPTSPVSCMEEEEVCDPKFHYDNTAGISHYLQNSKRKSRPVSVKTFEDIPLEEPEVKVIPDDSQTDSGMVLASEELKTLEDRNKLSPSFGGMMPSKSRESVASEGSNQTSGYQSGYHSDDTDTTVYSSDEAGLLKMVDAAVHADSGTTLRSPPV

Tests used:
[1] = target: Murine VEGFR-2 extracellular domain (first three Ig domains, amino acids 20-326), AviTag, hexahistidine tag, biotinylated (murine) (UniProt P35918); test: yeast display, receptor staining, flow cytometry (FIG. 4)
[2] = target: T1, Murine VEGFR-3 extracellular domain (amino acids 25-329), AviTag, hexahistidine tag, biotinylated (murine) (UniProt P35917); test: as above
T1 sequence (chain (part 1 of 2), biotinylated with BirA ligase (AviTag)): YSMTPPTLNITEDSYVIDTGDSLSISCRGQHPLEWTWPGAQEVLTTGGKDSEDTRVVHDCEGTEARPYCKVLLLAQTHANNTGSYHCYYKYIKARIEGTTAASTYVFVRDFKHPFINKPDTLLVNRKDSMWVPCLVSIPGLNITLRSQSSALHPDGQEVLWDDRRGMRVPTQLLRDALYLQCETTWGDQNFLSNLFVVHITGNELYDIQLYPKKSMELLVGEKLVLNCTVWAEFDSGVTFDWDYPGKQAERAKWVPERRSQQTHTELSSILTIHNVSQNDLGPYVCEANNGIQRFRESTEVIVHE
T1 sequence (chain (part 2 of 2), biotinylated with BirA ligase (AviTag)): HHHHHH

binding [1]: binds
binding [2]: binds
B1: Murine VEGF-C (amino acids 112-215), wild type, displayed on the yeast surface with a GCN4 dimerization sequence (ligand, not shown: large carriers)
chain: TEILKSIDNEWRKTQCMPREVCIDVGKEFGAATNTFFKPPCVSVYRCGGCCNSEGLQCMNTSTGYLSKTLFEITVPLSQGPKPVTISFANHTSCRCMSKLDVYRRMKQLEDKIEELLSKIYHLENEIARLKKLIGER
